According to the supplement of paper PMC5355238:
Structures can show the parent of a compound that is named as a salt. Some of the results follow. Most entries show no effect beyond the scatter of the controls.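 Reh is a human leukemia cell line; the read-out is the median γH2AX antibody signal in S-phase cells by flow cytometry, with the score counting standard deviations from the median difference of each paired set of plates. Scores above 2.5 were called candidate hits, while scores below -2 mark compounds that lowered the MK1775-induced damage.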

These molecules were tested on Reh (assay: Z' of S-phase gammaH2AX difference (drug + MK1775 minus drug alone) (Z-score); higher = stronger synergistic S-phase DNA damage with MK1775). Conditions: MK1775 concentration 400 nM; first compound 10 µM; 4 h.

Row | Compound | Z' of S-phase gammaH2AX difference (Z-score)
1 | C=CC(=O)Nc1cccc(Oc2nc(Nc3ccc(N4CCN(C)CC4)cc3OC)ncc2Cl)c1 + C=CCn1c(=O)c2cnc(Nc3ccc(N4CCN(C)CC4)cc3)nc2n1-c1cccc(C(C)(C)O)n1 [MK1775] | inactive: -0.363
2 | O=C(/C=C/c1ccc(O)c(O)c1)OCCc1ccccc1 [Caffeic acid phenethyl ester] + C=CCn1c(=O)c2cnc(Nc3ccc(N4CCN(C)CC4)cc3)nc2n1-c1cccc(C(C)(C)O)n1 [MK1775] | inactive: 0.692
3 | CN1CCN(CCCN2c3ccccc3Sc3ccc(Cl)cc32)CC1 [Prochlorperazine dimaleate] + C=CCn1c(=O)c2cnc(Nc3ccc(N4CCN(C)CC4)cc3)nc2n1-c1cccc(C(C)(C)O)n1 [MK1775] | inactive: -0.369
4 | CN(C)C[C@@H]1CCn2cc(c3ccccc32)C2=C(C(=O)NC2=O)c2cn(c3ccccc23)CCO1 + C=CCn1c(=O)c2cnc(Nc3ccc(N4CCN(C)CC4)cc3)nc2n1-c1cccc(C(C)(C)O)n1 [MK1775] | inactive: 0.289
5 | Cc1c(C)c2c(c(C)c1O)CCC(C)(CN1CCN(c3cc(N4CCCC4)nc(N4CCCC4)n3)CC1)O2 (stereo not given) + C=CCn1c(=O)c2cnc(Nc3ccc(N4CCN(C)CC4)cc3)nc2n1-c1cccc(C(C)(C)O)n1 [MK1775] | inactive: 0.475
6 | CC(=O)[C@]1(O)Cc2c(O)c3c(c(O)c2[C@@H](O[C@H]2C[C@H](N)[C@H](O)[C@H](C)O2)C1)C(=O)c1ccccc1C3=O [Idarubicin] + C=CCn1c(=O)c2cnc(Nc3ccc(N4CCN(C)CC4)cc3)nc2n1-c1cccc(C(C)(C)O)n1 [MK1775] | inactive: 2.31
7 | CC(=O)[C@]1(O)Cc2c(O)c3c(c(O)c2[C@@H](O[C@H]2C[C@H](N)[C@H](O)[C@H](C)O2)C1)C(=O)c1ccccc1C3=O [Idarubicin HCl] + C=CCn1c(=O)c2cnc(Nc3ccc(N4CCN(C)CC4)cc3)nc2n1-c1cccc(C(C)(C)O)n1 [MK1775] | inactive: -1.04
8 | Cn1ccc2cc(NC(=O)Nc3cccnc3)ccc21 + C=CCn1c(=O)c2cnc(Nc3ccc(N4CCN(C)CC4)cc3)nc2n1-c1cccc(C(C)(C)O)n1 [MK1775] | inactive: -0.21
9 | CS(=O)(=O)N1CCc2c(-c3cnc(N)nc3)nc(N3CCOCC3)nc21 + C=CCn1c(=O)c2cnc(Nc3ccc(N4CCN(C)CC4)cc3)nc2n1-c1cccc(C(C)(C)O)n1 [MK1775] | inactive: -0.0584
10 | COc1ccc(C2CNC(=O)C2)cc1OC1CCCC1 (stereo not given) [Rolipram] + C=CCn1c(=O)c2cnc(Nc3ccc(N4CCN(C)CC4)cc3)nc2n1-c1cccc(C(C)(C)O)n1 [MK1775] | inactive: -0.771

Given field by field: entries from further up
Cc1c(C)c2c(c(C)c1O)CCC(C)(CN1CCN(c3cc(N4CCCC4)nc(N4CCCC4)n3)CC1)O2 (stereo not given) + C=CCn1c(=O)c2cnc(Nc3ccc(N4CCN(C)CC4)cc3)nc2n1-c1cccc(C(C)(C)O)n1 [MK1775]
  Z' of S-phase gammaH2AX difference (Z-score): inactive: 0.475
CC(=O)[C@]1(O)Cc2c(O)c3c(c(O)c2[C@@H](O[C@H]2C[C@H](N)[C@H](O)[C@H](C)O2)C1)C(=O)c1ccccc1C3=O [Idarubicin] + C=CCn1c(=O)c2cnc(Nc3ccc(N4CCN(C)CC4)cc3)nc2n1-c1cccc(C(C)(C)O)n1 [MK1775]
  Z' of S-phase gammaH2AX difference (Z-score): inactive: 2.31
